The other results are listed elsewhere or left out. Shown are side measurements of this screen, not its main read-out; they come without a call. Most of these compounds were active or inconclusive in the main read-out, so they are no random draw. Words in brackets tell the shape of the fitted curve; partial curves, single points and poor fits give uncertain potencies.

Broadly, the AC50 is the midpoint of the concentration-response curve, whichever way the signal moves.

The assay can be described thus: qHTS Assay to Find Inhibitors of Chronic Active B-Cell Receptor Signaling. Conditions: ABC-DLBCL IkBa-CBG/CBR reporter, luminescence ratio (green luciferase fused to IkBa over red control in TMD8 lymphoma cells), 4 h. Summed up: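 Concentration-response series (up to 46 uM) were applied to TMD8 dual-reporter cells for 4 h at 37C with doxycycline. Green/red ratio, after filter-overlap correction, defined %Activity; red signal alone was normalised to basal cells and zero luminescence.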
In general terms: qHTS replaces the single test concentration by a dilution series.

[1] abbreviates: measured here: CBR red luminescence, cell number.
Setting [2] is: measured here: IkBa-CBG green luminescence.

For the compound `Cc1ccc(N2C(N)=C(C#N)C(c3cccnc3)C3=C2CCCC3=O)cc1` (configuration not stated), under setting [1], the concentration at half-maximal activity (AC50) is 3.55 µM [rising, full curve, poor fit].

Regarding `Cc1nc2cc(NC(=O)N3CCCCC3)ccc2n1C`, the concentration at half-maximal activity (AC50) under setting [1] is 32.6 µM [falling, single point].

Regarding `O=C(Nc1ccc(NC(=O)c2ccco2)nc1)c1ccco1`, under setting [1], the AC50 is 8.91 µM [falling, partial curve].

On to `CCCCn1c(=N)n(CC(O)c2ccccc2)c2ccccc21` (configuration not stated), for which the AC50 under setting [1] was 35.5 µM [falling, partial curve, poor fit].

Turning to `O=C1NC(=S)S/C1=C/c1ccc(N2CCOCC2)o1`, the concentration at half-maximal activity (AC50) under setting [1] was 18.4 µM [falling, single point].

For `N#CCc1ccc(C(=O)c2ccccc2F)s1`, the AC50 under setting [1] was 16.4 µM [falling, single point].

For `O=C(CCCN1C(=O)c2cccc3cccc(c23)C1=O)NCc1ccco1`, the AC50 under setting [1] was 10 µM [rising, partial curve, poor fit].

Regarding `CCCCn1c(C(C)O)nc2ccccc21` (configuration not stated), the AC50 under setting [1] was 2.24 µM [falling, partial curve, poor fit].

Regarding `COc1cc(/C=N/NC(=S)NC2CC3CC2C2C=CCC32)ccc1O` (configuration not stated), the AC50 under setting [1] was 20 µM [falling, single point].

In the case of `CCCCN(C)C(=O)C1CCN(Cc2ccc(OCc3ccccc3)cc2)CC1`, the AC50 under setting [1] was 4.61 µM [falling, full curve, poor fit].

Consider `CSc1ccccc1C(=O)Nc1cc2c(cc1C(=O)O)OCCCO2`, for which the AC50 under setting [1] was 20 µM [falling, partial curve].

As for `CCn1c(=O)c(C2=NS(=O)(=O)c3ccccc3N2)c(O)c2ccccc21`, the AC50 under setting [1] is 2.51 µM [falling, partial curve, poor fit].

`COc1ccccc1-c1nc(COc2ccc(Cl)cc2Cl)no1`: under setting [1], the AC50 was 11.2 µM [falling, partial curve].

Regarding `Cc1cc(SCC(=O)OCC(=O)N(C)c2ccccc2)nc2ccccc12`, the AC50 under setting [1] is 7.31 µM [rising, partial curve, poor fit].

`O=C(NCCc1c[nH]c2ccccc12)c1ccccc1`: under setting [1], the AC50 was 12.6 µM [falling, partial curve].

As for `Cc1ccsc1C(=O)NC(C)c1ccc2c(c1)OCO2` (configuration not stated), under setting [1], the AC50 was 20.6 µM [falling, single point].

Regarding `COc1ccc(S(=O)(=O)Nc2c(O)c3ccccc3oc2=O)cc1`, under setting [1], the AC50 was 31.6 µM [falling, single point].

In the case of `COc1ccc(-c2nc(-c3ccncc3)no2)cc1OC`, under setting [1], the AC50 is 5.01 µM [rising, single point].

In the case of `CC(C)N1C(=O)C2C(C(=O)NC3CCCCC3)C3C=CC2(O3)C1C(=O)NC1CCCC1` (configuration not stated), under setting [1], the AC50 was 0.00461 µM [rising, full curve, poor fit].

Take `c1csc(-c2nn3c(C4COc5ccccc5O4)nnc3s2)c1` (configuration not stated): the AC50 under setting [1] was 0.651 µM [falling, full curve, poor fit].

On to `Cc1cccc(C(=O)Oc2ccc(/C=N/NC(=O)c3ccccc3O)cc2)c1`, for which the AC50 under setting [1] was 6.51 µM [falling, partial curve, poor fit].

In the case of `C/C(=N/Nc1nc(-c2ccc(Cl)cc2)cs1)c1cccs1`, the AC50 under setting [1] was 0.206 µM [falling, full curve].

`O=C(NCCN1CCN(c2ccccc2F)CC1)C1CC(=O)N(C2CCCC2)C1` (configuration not stated): under setting [1], the AC50 is 3.16 µM [falling, single point].

As to `COc1cc(/C=N/O)ccc1OCc1ccccc1Cl`, the AC50 under setting [1] was 35.5 µM [falling, single point].

As to `NC(=O)c1ccsc1NC(=O)COC(=O)CSc1ccc(Cl)cc1`, the AC50 under setting [1] is 0.708 µM [falling, full curve, poor fit].

`CCN(CC)S(=O)(=O)c1ccc2c(c1)c(=O)c(C(=O)N1CCN(c3ccccn3)CC1)cn2C`: the AC50 under setting [1] was 0.1 µM [falling, full curve, poor fit].

With `C/C=C/c1ccc(OCCNCc2ccccc2)c(OC)c1`, under setting [1], the concentration at half-maximal activity (AC50) was 35.5 µM [rising, partial curve, poor fit].

`COc1cccc(Nc2nn3c(=O)c4ccccc4nc3s2)c1`: the AC50 was 0.651 µM [falling, partial curve, poor fit] under setting [1] and 0.0517 µM [rising, full curve, poor fit] under setting [2].

In the case of `Cc1ccc(C(=O)OC(C)C(=O)Nc2ccc(S(N)(=O)=O)cc2)cc1S(=O)(=O)N1CCOCC1` (configuration not stated), the AC50 under setting [1] is 13 µM [rising, partial curve, poor fit].

`O=C(O)c1ccccc1NN=C1CCCCC1`: the AC50 under setting [1] is 14.6 µM [falling, single point].

As to `O=C1c2cccc3cc([N+](=O)[O-])cc(c23)C(=O)N1CCN1CCCC1`, the AC50 was 35.5 µM [falling, single point] under setting [1] and 6.31 µM [rising, partial curve, poor fit] under setting [2].

For `COc1ccc2nc3oc(C(=O)N4CCCCC4)cc3cc2c1`, under setting [1], the half-maximal activity concentration (AC50) was 32.6 µM [falling, single point].

Turning to `Cc1cc(C)c2c(N)c(C(=O)NN3CC(=O)N(c4ccccc4)CC3=O)sc2n1`, the concentration at half-maximal activity (AC50) under setting [1] is 7.08 µM [falling, partial curve] and the AC50 under setting [2] was 6.31 µM [rising, full curve].

Consider `CCc1ccc(NC(=O)c2cc(S(=O)(=O)N3CCCC3)ccc2F)cc1`, for which, under setting [1], the AC50 was 17.8 µM [falling, partial curve, poor fit].

For `Cc1noc(C)c1S(=O)(=O)Nc1ccc2c(c1)C(=O)N([C@H](C)CO)C[C@H](C)[C@@H](CN(C)C(=O)NC1CCCCC1)O2`, the AC50 under setting [1] was 25.9 µM [rising, partial curve, poor fit].

Consider `N#CC1C(C#N)N2CCCN2C1c1ccc(Br)cc1` (configuration not stated), for which, under setting [1], the AC50 is 6.31 µM [falling, single point].

Regarding `COc1ccc(S(=O)(=O)N(C)c2ccc(C(=O)Nc3cccnc3)cc2)cc1`, the AC50 under setting [1] is 35.5 µM [falling, single point].

Consider `O=C(OCc1cccc(C(F)(F)F)c1)c1cc([N+](=O)[O-])ccc1N1CCOCC1`, for which, under setting [1], the AC50 was 2.06 µM [rising, partial curve].

Take `CN(C)CCCn1c(SCC(=O)N2c3ccccc3Sc3ccccc32)nc2ccccc2c1=O`: the AC50 under setting [1] is 9.2 µM [falling, partial curve].

`Cc1ccccc1N/C(=N/S(=O)(=O)c1cc(F)ccc1F)c1ccccc1`: the AC50 under setting [1] is 8.91 µM [falling, partial curve, poor fit].

For `COc1cc(/C=C(\C#N)C(=O)N2CCc3ccccc32)ccc1O`, the AC50 under setting [1] was 1 µM [falling, full curve, poor fit].

As for `N#Cc1ccccc1OCC(=O)Nc1cccc(S(=O)(=O)N2CCCC2)c1`, under setting [1], the AC50 was 2.31 µM [falling, full curve].

Take `COc1ccc(N2CCN(C(=O)c3ccc4c(c3)NC(=O)C(CSCc3cccc(F)c3)N4)CC2)cc1` (configuration not stated): the AC50 was 35.5 µM [rising, single point] under setting [1] and 15.8 µM [falling, single point] under setting [2].

As to `COc1ccc(C(=O)Nc2nnc(SCC(=O)NCc3ccco3)s2)c(OC)c1`, the AC50 under setting [1] was 8.91 µM [falling, partial curve].

Regarding `COc1cc2ncc(S(=O)(=O)c3ccccc3)c(N3CCCC(C)C3)c2cc1OC` (configuration not stated), under setting [1], the AC50 was 12.6 µM [falling, single point].

For the compound `O=C(NC(=S)N1CCN(c2c(Cl)cccc2[N+](=O)[O-])CC1)c1cccs1`, the AC50 under setting [1] is 20.6 µM [rising, single point].

As to `O=C(c1cccc(S(=O)(=O)N2CCOCC2)c1)N1CCCCCC1`, the AC50 under setting [1] was 13 µM [rising, single point].

Consider `O=C(CSc1ncccn1)N1CCCc2ccccc21`, for which the half-maximal activity concentration (AC50) under setting [1] is 35.5 µM [rising, single point].

Take `COc1ccc2cc3c(N)nn(C(=O)c4ccc(F)cc4)c3nc2c1`: the AC50 under setting [1] was 4.47 µM [falling, full curve, poor fit].

Regarding `Cc1nc(-c2cccc(NS(=O)(=O)c3cccc4ccccc34)c2)cs1`, the AC50 under setting [1] was 6.51 µM [falling, partial curve, poor fit].

Regarding `COc1cc(-c2noc(C)c2C(=O)NCCc2cccs2)cc(OC)c1OC`, under setting [1], the half-maximal activity concentration (AC50) is 1.84 µM [rising, full curve, poor fit].

As for `CCN(CC)c1ccc(NC(=O)CN(C)Cc2cccs2)cc1`, under setting [1], the concentration at half-maximal activity (AC50) is 35.5 µM [rising, partial curve, poor fit].

In the case of `O=C1C2CC=C(Cl)CC2C(=O)N1CCCCCCN1C(=O)C2CC=C(Cl)CC2C1=O` (configuration not stated), under setting [1], the AC50 is 7.31 µM [rising, single point].

For `COc1ccccc1NC(=O)NN1CCCCC1`, under setting [1], the AC50 is 8.91 µM [rising, partial curve, poor fit].

As to `Cc1nc2cc(-c3ccc(Br)cc3)[nH]n2c(=O)c1Cl`, the AC50 under setting [1] is 2 µM [falling, full curve].

In the case of `CCOc1ccc(Nc2nc(Cc3nnc(SCC(N)=O)o3)cs2)cc1`, the AC50 under setting [1] was 29.1 µM [falling, single point].

Take `O=C(Nc1ccc(N2CCCCC2)cc1)c1cccnc1`: under setting [1], the AC50 was 23.1 µM [falling, single point].

On to `Fc1ccc(Oc2nc(-c3ccccn3)nc3ccccc23)cc1`, for which the concentration at half-maximal activity (AC50) under setting [1] is 35.5 µM [falling, single point].

`O=C(COC(=O)c1cc(Br)ccc1O)NNC(=O)c1ccc(Cl)cc1`: the AC50 under setting [1] was 2.59 µM [rising, full curve, poor fit].

In the case of `O=C(NNc1nc2ccccc2s1)Nc1ccc(F)cc1`, the AC50 under setting [1] was 15.8 µM [falling, partial curve, poor fit].

`O=C(NC1CCCCCC1)c1ccc(S(=O)(=O)NCc2ccco2)cc1`: the concentration at half-maximal activity (AC50) under setting [1] is 29.1 µM [rising, single point].

For the compound `Cc1ccc(-n2ncc3c(N4CCC5(CC4)OCCO5)ncnc32)c(C)c1`, the AC50 under setting [1] was 10.3 µM [falling, single point].

Turning to `Cc1c(Nc2nc(-c3ccc(Cl)cc3)cs2)c(=O)n(-c2ccccc2)n1C`, the AC50 under setting [1] was 8.2 µM [falling, partial curve].

The record behind these values is PubChem BioAssay AID493014 (National Center for Advancing Translational Sciences (NCATS), 2011).
